Laboratory results reported in publication PMC6370856, “Peptidyl prolyl cis/trans isomerase activity on the cell surface correlates with extracellular matrix development” (Communications Biology, 2019).

Test system: collagen hydrogel (Type I, rat-tail)
Assay: Step-strain rheological measurement, self-healing of collagen hydrogel
Details: 9 micromolar CypA
Protocol: Another important feature of the dynamic ECMs is their self-healing property, which can be tested using a step-strain rheological measurement. A strong strain is applied to liquify the materials, and the recovery of storage modulus is followed (self-healing) (Fig. 1b). Collagen hydrogel can only partially recover its storage modulus after the first cycle. The rate and extent of recovery were unchanged over the following cycles.
To minimize sample evaporation at 37 °C, a tissue paper wet in HEPEs buffer (10 mM, pH 7.8) was placed inside the H-PTD chamber to increase the humidity. […] The cone and plate were treated with plasma for 5 min to increase the hydrophilicity of the metal surface.

Substance: CypA: recombinant cyclophilin A, a PPIase, expressed in E. coli
- Storage Modulus, Mean (Time 0.5 min): 15.8208 Pa
- Storage Modulus, Mean (Time 1 min): 15.8171 Pa
- Storage Modulus, Mean (Time 2 min): 15.8368 Pa
- Storage Modulus, Mean (Time 2.5 min): 16.0989 Pa
- Storage Modulus, Mean (Time 3 min): 16.9639 Pa
- Storage Modulus, Mean (Time 3.5 min): 16.2233 Pa
- Storage Modulus, Mean (Time 4 min): 16.0579 Pa
- Storage Modulus, Mean (Time 4.5 min): 16.7853 Pa
- Storage Modulus, Mean (Time 5 min): 16.3104 Pa
- Storage Modulus, Mean (Time 6 min): 16.724 Pa
- Storage Modulus, Mean (Time 6.5 min): 16.2024 Pa
- Storage Modulus, Mean (Time 7 min): 16.3448 Pa
- Storage Modulus, Mean (Time 7.5 min): 15.9378 Pa
- Storage Modulus, Mean (Time 8 min): 15.9026 Pa
- Storage Modulus, Mean (Time 8.5 min): 16.142 Pa
- Storage Modulus, Mean (Time 9 min): 16.5007 Pa
- Storage Modulus, Mean (Time 9.5 min): 15.7601 Pa
- Storage Modulus, Mean (Time 10 min): 16.2878 Pa
- Storage Modulus, Mean (Time 11 min): 16.414 Pa
- Storage Modulus, Mean (Time 12 min): 16.3967 Pa
- Storage Modulus, Mean (Time 12.5 min): 15.8247 Pa
- Storage Modulus, Mean (Time 13 min): 16.2827 Pa
- Storage Modulus, Mean (Time 14 min): 16.0204 Pa
- Storage Modulus, Mean (Time 15 min): 15.8554 Pa
- Storage Modulus, Mean (Time 15.5 min): 16.1419 Pa
- Storage Modulus, Mean (Time 16 min): 15.41 Pa
- Storage Modulus, Mean (Time 16.5 min): 15.9689 Pa
- Storage Modulus, Mean (Time 17 min): 15.5457 Pa
- Storage Modulus, Mean (Time 17.5 min): 16.4414 Pa
- Storage Modulus, Mean (Time 18 min): 16.5892 Pa
- Storage Modulus, Mean (Time 18.5 min): 16.3366 Pa
- Storage Modulus, Mean (Time 19 min): 16.287 Pa
- Storage Modulus, Mean (Time 19.5 min): 16.3668 Pa
- Storage Modulus, Mean (Time 20 min): 16.8513 Pa
- Storage Modulus, Mean (Time 20.5 min): 15.8908 Pa
- Storage Modulus, Mean (Time 21 min): 16.4657 Pa
- Storage Modulus, Mean (Time 22 min): 16.3069 Pa
- Storage Modulus, Mean (Time 22.5 min): 16.1892 Pa
- Storage Modulus, Mean (Time 23 min): 16.1259 Pa
- Storage Modulus, Mean (Time 23.5 min): 15.8073 Pa
- Storage Modulus, Mean (Time 24 min): 16.0524 Pa
- Storage Modulus, Mean (Time 24.5 min): 16.266 Pa
- Storage Modulus, Mean (Time 25 min): 16.0275 Pa
- Storage Modulus, Mean (Time 25.5 min): 16.6294 Pa
- Storage Modulus, Mean (Time 26 min): 16.1748 Pa
- Storage Modulus, Mean (Time 26.5 min): 16.2368 Pa
- Storage Modulus, Mean (Time 27 min): 15.9059 Pa
- Storage Modulus, Mean (Time 27.5 min): 16.5214 Pa
- Storage Modulus, Mean (Time 28 min): 16.7548 Pa
- Storage Modulus, Mean (Time 28.5 min): 16.4739 Pa
- Storage Modulus, Mean (Time 29 min): 16.2691 Pa
- Storage Modulus, Mean (Time 29.5 min): 16.3279 Pa
- Storage Modulus, Mean (Time 30 min): 16.2533 Pa
- Storage Modulus, Mean (Time 30.167 min): 1.444 Pa
- Storage Modulus, Mean (Time 30.333 min): 1.239 Pa
- Storage Modulus, Mean (Time 30.5 min): 1.099 Pa
- Storage Modulus, Mean (Time 30.667 min): 1.033 Pa
- Storage Modulus, Mean (Time 30.833 min): 0.9888 Pa
- Storage Modulus, Mean (Time 31 min): 0.9512 Pa
- Storage Modulus, Mean (Time 31.167 min): 0.9204 Pa
- Storage Modulus, Mean (Time 31.333 min): 0.8959 Pa
- Storage Modulus, Mean (Time 31.5 min): 0.8733 Pa
- Storage Modulus, Mean (Time 31.667 min): 0.854 Pa
- Storage Modulus, Mean (Time 32.167 min): 3.488 Pa
- Storage Modulus, Mean (Time 32.667 min): 4.741 Pa
- Storage Modulus, Mean (Time 33.167 min): 5.134 Pa
- Storage Modulus, Mean (Time 33.667 min): 4.579 Pa
- Storage Modulus, Mean (Time 34.167 min): 4.88 Pa
- Storage Modulus, Mean (Time 34.667 min): 5.921 Pa
- Storage Modulus, Mean (Time 35.167 min): 5.466 Pa
- Storage Modulus, Mean (Time 35.667 min): 5.258 Pa
- Storage Modulus, Mean (Time 36.167 min): 5.593 Pa
- Storage Modulus, Mean (Time 36.667 min): 5.387 Pa
- Storage Modulus, Mean (Time 37.167 min): 5.773 Pa
- Storage Modulus, Mean (Time 37.667 min): 5.997 Pa
- Storage Modulus, Mean (Time 38.167 min): 5.482 Pa
- Storage Modulus, Mean (Time 38.667 min): 5.375 Pa
- Storage Modulus, Mean (Time 39.167 min): 5.844 Pa
- Storage Modulus, Mean (Time 39.667 min): 5.739 Pa
- Storage Modulus, Mean (Time 40.167 min): 5.438 Pa
- Storage Modulus, Mean (Time 40.667 min): 5.765 Pa
- Storage Modulus, Mean (Time 41.167 min): 5.463 Pa
- Storage Modulus, Mean (Time 41.667 min): 6.012 Pa
- Storage Modulus, Mean (Time 42.167 min): 5.41 Pa
- Storage Modulus, Mean (Time 42.667 min): 6.2431 Pa
- Storage Modulus, Mean (Time 43.667 min): 6.226 Pa
- Storage Modulus, Mean (Time 44.167 min): 5.9794 Pa
- Storage Modulus, Mean (Time 44.667 min): 5.985 Pa
- Storage Modulus, Mean (Time 45.167 min): 6.374 Pa
- Storage Modulus, Mean (Time 45.667 min): 6.469 Pa
- Storage Modulus, Mean (Time 46.167 min): 6.238 Pa
- Storage Modulus, Mean (Time 46.667 min): 6.48 Pa
- Storage Modulus, Mean (Time 47.167 min): 6.245 Pa
- Storage Modulus, Mean (Time 47.667 min): 6.264 Pa
- Storage Modulus, Mean (Time 48.167 min): 6.061 Pa
- Storage Modulus, Mean (Time 48.667 min): 6.129 Pa
- Storage Modulus, Mean (Time 49.167 min): 6.359 Pa
- Storage Modulus, Mean (Time 49.667 min): 6.635 Pa
- Storage Modulus, Mean (Time 50.167 min): 6.729 Pa
- Storage Modulus, Mean (Time 50.667 min): 6.587 Pa
- Storage Modulus, Mean (Time 51.167 min): 6.539 Pa
- Storage Modulus, Mean (Time 52.167 min): 6.7034 Pa
- Storage Modulus, Mean (Time 52.667 min): 6.721 Pa
- Storage Modulus, Mean (Time 53.167 min): 6.093 Pa
- Storage Modulus, Mean (Time 53.667 min): 6.47 Pa
- Storage Modulus, Mean (Time 54.167 min): 6.616 Pa
- Storage Modulus, Mean (Time 54.667 min): 6.384 Pa
- Storage Modulus, Mean (Time 55.167 min): 6.562 Pa
- Storage Modulus, Mean (Time 55.667 min): 6.487 Pa
- Storage Modulus, Mean (Time 56.167 min): 6.459 Pa
- Storage Modulus, Mean (Time 56.667 min): 6.476 Pa
- Storage Modulus, Mean (Time 57.167 min): 6.693 Pa
- Storage Modulus, Mean (Time 57.667 min): 6.141 Pa
- Storage Modulus, Mean (Time 58.167 min): 6.373 Pa
- Storage Modulus, Mean (Time 58.67 min): 6.398 Pa
- Storage Modulus, Mean (Time 59.17 min): 6.773 Pa
- Storage Modulus, Mean (Time 59.67 min): 6.841 Pa
- Storage Modulus, Mean (Time 60.17 min): 6.995 Pa
- Storage Modulus, Mean (Time 60.67 min): 6.318 Pa
- Storage Modulus, Mean (Time 61.17 min): 6.74 Pa
- Storage Modulus, Mean (Time 61.67 min): 6.619 Pa
- Storage Modulus, Mean (Time 61.83 min): 1.042 Pa
- Storage Modulus, Mean (Time 62 min): 0.9812 Pa
- Storage Modulus, Mean (Time 62.17 min): 0.9146 Pa
- Storage Modulus, Mean (Time 62.33 min): 0.8895 Pa
- Storage Modulus, Mean (Time 62.5 min): 0.8547 Pa
- Storage Modulus, Mean (Time 62.67 min): 0.8377 Pa
- Storage Modulus, Mean (Time 62.83 min): 0.8254 Pa
- Storage Modulus, Mean (Time 63 min): 0.8121 Pa
- Storage Modulus, Mean (Time 63.17 min): 0.8015 Pa
- Storage Modulus, Mean (Time 63.33 min): 0.7955 Pa
- Storage Modulus, Mean (Time 63.83 min): 3.439 Pa
- Storage Modulus, Mean (Time 64.33 min): 3.995 Pa
- Storage Modulus, Mean (Time 64.83 min): 3.976 Pa
- Storage Modulus, Mean (Time 65.83 min): 5.213 Pa
- Storage Modulus, Mean (Time 66.33 min): 4.959 Pa
- Storage Modulus, Mean (Time 66.83 min): 4.809 Pa
- Storage Modulus, Mean (Time 67.33 min): 5.182 Pa
- Storage Modulus, Mean (Time 67.83 min): 4.855 Pa
- Storage Modulus, Mean (Time 68.33 min): 4.872 Pa
- Storage Modulus, Mean (Time 68.83 min): 5.037 Pa
- Storage Modulus, Mean (Time 69.33 min): 5.3734 Pa
- Storage Modulus, Mean (Time 69.83 min): 5.191 Pa
- Storage Modulus, Mean (Time 70.33 min): 4.815 Pa
- Storage Modulus, Mean (Time 70.83 min): 5.539 Pa
- Storage Modulus, Mean (Time 71.33 min): 5.01 Pa
- Storage Modulus, Mean (Time 71.83 min): 5.823 Pa
